Data from PubChem BioAssay (NCATS).
Inconclusive results, whose numbers are uncertain, are shown with a selection of clear calls. For some of these results: A potency beside an inconclusive call is a rough fit, not a confirmed value. Calls of active or inactive are those of the source. The call rests on the fitted dose curve; in most records, active means well fitted curve in the direction sought with a large enough effect; inconclusive means small, poorly fitted or top-dose-only effect, or another doubt; inactive means no such curve, though single readings can be large; an effect the other way counts as inactive or inconclusive.

Columns and labels:
[1] = Quantitative High-Throughput drug screen in 47 multiple myeloma cell lines against the NCATS MIPE library collection: ARP1_JJKsccF8 cell viability assay (AID 1918928; further: nearly all actives have a fitted effect of over 40% in size); settings: ARP1 myeloma cells viability, CellTiter-Glo ATP, 48 h; viability: at 45.8 µM (top of the series)
Method in brief: (§1)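 Cell viability inhibition in this qHTS is measured via ATP content (CellTiter-Glo) after 48 h drug exposure at 37 °C. Wells hold 500 cells; DMSO-treated wells define 100% and medium-only wells 0%.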

[2] = Quantitative High-Throughput drug screen in 47 multiple myeloma cell lines against the NCATS MIPE library collection: ARD_JJKsccE7 cell viability assay (AID 1918929); settings: ARD myeloma cell line viability, CellTiter-Glo, 48 h; viability: at 45.8 µM (top of the series) unless noted
Method in brief: (§2)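 Myeloma cell lines, 500 cells per well, exposed to MIPE 4.0 library compounds for 48 h at 37C, 5% CO2. Viability from ATP by CellTiter-Glo luminescence; normalised to DMSO (100%) and media-only (0%) wells.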

[3] = Quantitative High-Throughput drug screen in 47 multiple myeloma cell lines against the NCATS MIPE library collection: Karpas417_ECACC cell viability assay (AID 1918961); settings: Karpas417 myeloma viability, CellTiter-Glo ATP luminescence, 48 h; viability (% of DMSO): at 45.8 µM (top of the series) unless noted
Method in brief: (§3)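 CellTiter-Glo ATP luminescence gave viability after 48 h compound treatment at 37C of 500 multiple myeloma cells per well. Normalisation used DMSO-only wells as 100% and media-only wells as 0% viability; primary qHTS of approved and investigational drugs.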

[4] = Quantitative High-Throughput drug screen in 47 multiple myeloma cell lines against the NCATS MIPE library collection: Karpas620_DSMZ cell viability assay (AID 1918959); settings: Karpas620 myeloma viability, CellTiter-Glo ATP luminescence, 48 h; viability (% of DMSO): at 45.8 µM (top of the series); further: nearly all actives have a fitted effect of over 30% in size
Method in brief: (§4)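 Myeloma cells (500 per well) were exposed to MIPE 4.0 compounds by pin transfer and incubated 48 hours at 37C, 5% CO2. Viability was read as ATP by CellTiter-Glo luminescence, normalised to DMSO (100%) and media-only (0%) wells.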

[5] = Quantitative High-Throughput drug screen in 47 multiple myeloma cell lines against the NCATS MIPE library collection: KMM1_JCRB cell viability assay (AID 1918960); settings: KMM1 myeloma viability, CellTiter-Glo ATP luminescence, 48 h; viability (% of DMSO): at 45.8 µM (top of the series); further: nearly all actives have a fitted effect of over 30% in size
Method in brief: as §1

[6] = Quantitative High-Throughput drug screen in 47 multiple myeloma cell lines against the NCATS MIPE library collection: KHM11_PLB cell viability assay (AID 1918962); settings: KHM11 myeloma cell viability, CellTiter-Glo ATP luminescence, 48 h; series mostly up to 45.8 µM; further: nearly all actives have a fitted effect of over 35% in size
Method in brief: as §4

[7] = Quantitative High-Throughput drug screen in 47 multiple myeloma cell lines against the NCATS MIPE library collection: JIM1_ECACC cell viability assay (AID 1918964); settings: JIM1 myeloma viability, CellTiter-Glo ATP luminescence, 48 h; viability (% of DMSO): at 45.8 µM (top of the series)
Method in brief: as §2

[8] = Quantitative High-Throughput drug screen in 47 multiple myeloma cell lines against the NCATS MIPE library collection: INA6_PLB cell viability assay (AID 1918965; further: nearly all actives have a fitted effect of over 55% in size); settings: INA6 myeloma viability, CellTiter-Glo ATP luminescence, 48 h; series mostly up to 45.8 µM
Method in brief: as §3

[9] = Quantitative High-Throughput drug screen in 47 multiple myeloma cell lines against the NCATS MIPE library collection: JIM3_ECACC cell viability assay (AID 1918963; further: nearly all actives have a fitted effect of over 35% in size); settings: JIM3 myeloma viability, CellTiter-Glo ATP, 48 h; series mostly up to 45.8 µM
Method in brief: as §4
Potency means the concentration at half of the fitted maximal effect.

Row | Structure (SMILES) | Potency [1] | Potency [2] | Potency [3] | Potency [4] | Potency [5] | Potency [6] | Potency [7] | Potency [8] | Potency [9]
1 | Cc1ccc(NC(=O)Nc2cc(C(F)(F)F)ccc2F)cc1Nc1ccc2c(c1)NC(=O)C2=Cc1ccc[nH]1 | inconclusive: 23.5 µM [cytotoxic, partial curve, poor fit] | active: 3.32 µM | active: 2.09 µM |  |  |  |  |  | 
2 | CCN[C@H]1C[C@H](C)S(=O)(=O)c2sc(S(N)(=O)=O)cc21 | inactive | inactive | inconclusive: 0.0372 µM [cytotoxic, full curve, poor fit] | inactive | inactive | inconclusive: 0.0019 µM [rising, full curve, poor fit] | inactive | inactive | 
3 | CCOC(=O)[C@H](CCc1ccccc1)N[C@H]1CS[C@H](c2cccs2)CN(CC(=O)O)C1=O | active: 11.8 µM | active: 1.66 µM | active: 0.264 µM |  | active: 1.05 µM | inconclusive: 4.18 µM [cytotoxic, partial curve, poor fit] | active: 1.32 µM | active: 2.96 µM | 
4 | CCN(CC)CCCC(C)Nc1ccnc2cc(Cl)ccc12 (centres undefined) | inconclusive: 37.2 µM [cytotoxic, single point] | inconclusive: 3.32 µM [cytotoxic, full curve, poor fit] | active: 0.0526 µM | inconclusive: 0.296 µM [cytotoxic, full curve, poor fit] |  | inconclusive: 0.0026 µM [rising, full curve, poor fit] | inactive | inconclusive: 0.0105 µM [rising, full curve, poor fit] | 
5 | CCOC(=O)N1CCN([N+]([O-])=NOc2cc(ON=[N+]([O-])N3CCN(C(=O)OCC)CC3)c([N+](=O)[O-])cc2[N+](=O)[O-])CC1 | inconclusive: 2.64 µM [cytotoxic, full curve, poor fit] | active: 0.0526 µM |  | inconclusive: 33.2 µM [cytotoxic, single point] | inconclusive: 66.2 µM [cytotoxic, partial curve, poor fit] | active: 6.62 µM | inactive |  | 
6 | CC1=C(CC(=O)O)c2cc(F)ccc2C1=Cc1ccc(S(C)=O)cc1 (centres undefined) | inconclusive: 18.7 µM [cytotoxic, single point] | active: 11.8 µM | active: 14.8 µM | inconclusive: 11.8 µM [cytotoxic, partial curve] | active: 20.9 µM | inconclusive: 11.8 µM [cytotoxic, partial curve] | inconclusive: 10.5 µM [cytotoxic, full curve, poor fit] |  | 
7 | Nc1nc(Nc2ccc(S(N)(=O)=O)cc2)nn1C(=O)c1c(F)cccc1F | active: 9.35 µM | active: 5.26 µM | active: 3.32 µM |  |  | active: 2.96 µM | inconclusive: 4.18 µM [cytotoxic, full curve, poor fit] | active: 1.48 µM | 
8 | CCc1cc(C(N)=S)ccn1 | inactive | inactive | inactive | inactive |  | inactive | inactive |  | 
9 | CCc1cccc(CC)c1NC(=O)N1Cc2[nH]nc(NC(=O)c3ccc(N4CCN(C)CC4)cc3)c2C1 | inconclusive: 8.33 µM [cytotoxic, partial curve] | active: 1.18 µM | inconclusive: 29.6 µM [cytotoxic, partial curve, poor fit] | inconclusive: 41.8 µM [cytotoxic, single point] |  |  | inactive | active: 4.69 µM | 
10 | COc1cccc(OC)c1-c1cc(C(=O)NC2(C(=O)O)C3CC4CC(C3)CC2C4)nn1-c1ccnc2cc(Cl)ccc12 (centres undefined) | inconclusive: 20.9 µM [cytotoxic, single point] | inactive | inconclusive: 9.35 µM [rising, partial curve, poor fit] | inactive | inactive | inactive | inconclusive: 4.18 µM [rising, full curve, poor fit] |  | 
11 | C=C1C[C@@]2(O)O[C@@]3(C[C@H]2C(C)C)[C@H](C)CC[C@H]13 | inactive | inactive | inconclusive: 0.0743 µM [rising, full curve, poor fit] |  | inconclusive: 0.0013 µM [rising, full curve] | inconclusive: 0.0053 µM [rising, full curve, poor fit] | inconclusive: 0.003 µM [rising, full curve, poor fit] |  | 
12 | CC(C(C)N1CC(=O)NC(=O)C1)N1CC(=O)NC(=O)C1 (centres undefined) | inconclusive: 0.0042 µM [cytotoxic, full curve, poor fit] | inconclusive: 0.148 µM [cytotoxic, full curve, poor fit] | inconclusive: 0.132 µM [rising, full curve, poor fit] |  | inactive | inactive | inconclusive: 0.0074 µM [rising, full curve, poor fit] | inconclusive: 2.96 µM [rising, full curve, poor fit] | 
13 | CCOc1ccccc1N=Nc1c(C)[nH]n(-c2nc(-c3ccccc3)cs2)c1=O | inactive | inconclusive: 3.72 µM [cytotoxic, partial curve, poor fit] | inconclusive: 1.32 µM [cytotoxic, full curve, poor fit] | inconclusive: 20.9 µM [cytotoxic, partial curve] | inactive | inactive | active: 1.66 µM | inactive | 
14 | O=c1n(CCCN2CCN(c3cccc(Cl)c3)CC2)nc2ccccn12 | inactive | inconclusive: 0.003 µM [cytotoxic, full curve, poor fit] |  |  |  | inactive | inactive | inconclusive: 29.6 µM [cytotoxic, single point] | inactive
15 | NC1=N[C@H]2[C@H](CS[C@H]2CCCCC(=O)O)N1 | inactive | inconclusive: 0.0023 µM [cytotoxic, full curve, poor fit] | inconclusive: 5.12 µM [rising, single point] | inconclusive: 0.0005 µM [rising, full curve, poor fit] | inactive | inactive | inconclusive: 0.0051 µM [rising, full curve, poor fit] |  | 
16 | Clc1ccc(Nc2nnc(Cc3ccncc3)c3ccccc23)cc1 | inconclusive: 2.96 µM [cytotoxic, full curve, poor fit] | inconclusive: 10.5 µM [cytotoxic, single point] | inconclusive: 4.69 µM [cytotoxic, partial curve, poor fit] |  | inactive | inconclusive: 20.9 µM [cytotoxic, partial curve] | inactive |  | 
17 | C#CCC(Cc1cnc2nc(N)nc(N)c2n1)c1ccc(C(=O)N[C@@H](CCC(=O)O)C(=O)O)cc1 (some centres undefined) | active: 0.0469 µM | inconclusive: 0.0132 µM [cytotoxic, full curve, poor fit] | inactive |  | inconclusive: 0.0019 µM [cytotoxic, full curve, poor fit] | inconclusive: 2.35 µM [cytotoxic, full curve, poor fit] | inactive |  | 
18 | CC(C)Oc1cc(Nc2nc(N[C@@H](C)c3ccc(F)cn3)ncc2Cl)[nH]n1 | inconclusive: 33.2 µM [cytotoxic, single point] |  | active: 2.64 µM | inconclusive: 29.6 µM [cytotoxic, single point] | active: 16.6 µM | active: 10.5 µM | active: 20.9 µM |  | 
19 | NC(=O)c1cccc(N)c1 | inactive | inconclusive: 0.001 µM [cytotoxic] |  |  |  | inconclusive: 20.9 µM [cytotoxic, partial curve] | inconclusive: 0.0066 µM [rising, full curve, poor fit] | inactive | 
20 | C[C@]12C=CC(=O)N[C@@H]1CC[C@H]1[C@H]3CC[C@@H](C(=O)Nc4cc(C(F)(F)F)ccc4C(F)(F)F)[C@@]3(C)CC[C@@H]12 | inconclusive: 14.8 µM [cytotoxic, partial curve, poor fit] | inactive |  |  |  | inactive | inconclusive: 0.0235 µM [cytotoxic, full curve, poor fit] | inconclusive: 0.0066 µM [cytotoxic, full curve, poor fit] | 
21 | NC(=O)c1noc([C@H](CCCC2CCCCC2)CC(=O)NO)n1 |  | inconclusive: 0.132 µM [cytotoxic, partial curve, poor fit] | inconclusive: 26.4 µM [rising, partial curve, poor fit] |  | inconclusive: 23.5 µM [cytotoxic, partial curve, poor fit] | active: 20.9 µM |  |  | active: 23.5 µM
22 | Cc1ccc(C(N)=O)cc1Nc1nccc(-c2cn(C(C)C)c3cnccc23)n1 | active: 6.62 µM |  | active: 2.96 µM |  | active: 4.18 µM | active: 3.32 µM | active: 2.35 µM |  | 
23 | Cc1c(-c2cccc3c(CCCOc4cccc5ccccc45)c(C(=O)O)n(Cc4cccnc4)c23)c(COc2ccc(N3CCN([S+](=O)([O-])N(C)C)CC3)cc2)nn1C | inconclusive: 26.4 µM [cytotoxic, single point] |  | inactive |  | inactive |  | inactive |  | 

Part of the list above, showing only Potency [2].
Row	Structure (SMILES)	Potency [2]
16	Clc1ccc(Nc2nnc(Cc3ccncc3)c3ccccc23)cc1	inconclusive: 10.5 µM [cytotoxic, single point]
17	C#CCC(Cc1cnc2nc(N)nc(N)c2n1)c1ccc(C(=O)N[C@@H](CCC(=O)O)C(=O)O)cc1 (some centres undefined)	inconclusive: 0.0132 µM [cytotoxic, full curve, poor fit]
